Measured values: paper PMC8760648
These are yes or no findings as the source states them, for the method shown. In cells and extracts the contact can be indirect. Some binding calls cover weakened binding; strength is not graded here.

What was measured:
[1] = target: T1, SART3, spliceosome-associated factor 3 (human (endogenous in glioma cells)) (UniProt Q15020); experiment: co-IP; IP with either IgG (control), AGO2, SART3 or PRPF8 antibodies from glioma cells, followed by Western blotting; endogenous proteins
T1 sequence: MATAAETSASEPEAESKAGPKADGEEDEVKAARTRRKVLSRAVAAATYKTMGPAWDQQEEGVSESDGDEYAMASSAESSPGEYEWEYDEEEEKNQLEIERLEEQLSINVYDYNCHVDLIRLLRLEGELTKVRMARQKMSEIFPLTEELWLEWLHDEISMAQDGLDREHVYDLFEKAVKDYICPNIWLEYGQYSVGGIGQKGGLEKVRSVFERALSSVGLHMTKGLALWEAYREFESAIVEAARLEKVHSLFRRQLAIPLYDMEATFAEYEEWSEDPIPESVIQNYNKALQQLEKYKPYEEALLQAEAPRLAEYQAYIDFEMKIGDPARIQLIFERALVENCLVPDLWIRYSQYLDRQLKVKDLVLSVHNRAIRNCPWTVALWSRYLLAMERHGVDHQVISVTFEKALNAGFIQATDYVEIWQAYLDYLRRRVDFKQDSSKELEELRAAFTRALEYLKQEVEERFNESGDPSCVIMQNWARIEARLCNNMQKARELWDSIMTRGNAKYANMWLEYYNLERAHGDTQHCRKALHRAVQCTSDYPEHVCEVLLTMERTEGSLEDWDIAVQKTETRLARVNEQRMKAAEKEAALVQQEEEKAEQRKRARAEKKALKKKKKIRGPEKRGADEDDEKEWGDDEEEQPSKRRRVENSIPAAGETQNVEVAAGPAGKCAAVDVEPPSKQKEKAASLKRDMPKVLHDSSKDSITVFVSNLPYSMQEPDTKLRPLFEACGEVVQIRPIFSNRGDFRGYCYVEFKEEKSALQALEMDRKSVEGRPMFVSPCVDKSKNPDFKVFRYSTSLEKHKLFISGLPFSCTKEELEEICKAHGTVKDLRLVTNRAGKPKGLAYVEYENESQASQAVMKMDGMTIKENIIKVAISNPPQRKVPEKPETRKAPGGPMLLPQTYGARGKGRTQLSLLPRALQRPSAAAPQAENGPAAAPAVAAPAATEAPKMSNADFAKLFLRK

[2] = target: Pre-mRNA-processing-splicing factor 8 (PRPF8) (human (endogenous in glioma cells)) (UniProt Q6P2Q9); experiment: as above

Substance: Argonaute 2 (Ago2) (from UniProt Q9UKV8 1-859)
- binding [1]: binds
- binding [2]: binds
